PubChem BioAssay AID1259254 | NCATS – 2017
Test: 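Finding genes that stop cells copying their DNA twice in one cycle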 (primary screen). System: human HCT116 colorectal cancer cells. Knock-down reagent: single siRNA against human genes. Timing: 3 days. Detection: 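Imaged Hoechst DNA stain sorts each cell into a cycle phase by DNA amount; per plate, G2 fraction set to 0% for non-targeting and 100% for GMNN siRNA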. Reading the numbers: G2 robust z-score and G2 cells, % of GMNN control: higher = more G2 cells, more excess DNA replication; raw share of cells in G2: higher = larger share of cells with G2 DNA content. Active means: 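Active siRNAs have a G2 robust z of 5 or more median absolute deviations over the median, which in these data means about 38% or higher of GMNN control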.
The deposit covers about 59,000 reagents; shown is a part drawn at random. About 1,550 of them (2.6%) were called active. 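G2 share is only a proxy for re-replication; each gene was hit by three separate siRNAs, and active genes were retested.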 Raw values are not corrected between plates. Not given: the amount of reagent.

target | PubChem SID | G2 robust z-score | G2 cells, % of GMNN control | raw share of cells in G2 (%) | Outcome
STRADBP1 (STE20-related kinase adaptor beta pseudogene 1) | SID160766219 | -0.181 | 1.7 | 4.35 | inactive
STRADBP1 (STE20-related kinase adaptor beta pseudogene 1) | SID160766222 | 0.278 | 4.92 | 5.55 | inactive
STRADBP1 (STE20-related kinase adaptor beta pseudogene 1) | SID160766223 | -0.552 | -0.915 | 4.24 | inactive
TMEM39A (transmembrane protein 39A) | SID160733595 | 0.0321 | 3.19 | 4.16 | inactive
TMEM39A (transmembrane protein 39A) | SID160743357 | 3.89 | 30.4 | 16.2 | inactive
TMEM39A (transmembrane protein 39A) | SID160743358 | 0.453 | 6.16 | 6.69 | inactive
MCF2L2 (MCF.2 cell line derived transforming sequence-like 2) | SID160735452 | -1.52 | -7.72 | 3.27 | inactive
MCF2L2 (MCF.2 cell line derived transforming sequence-like 2) | SID160735453 | 3.74 | 29.3 | 14 | inactive
MCF2L2 (MCF.2 cell line derived transforming sequence-like 2) | SID160735454 | 9.68 | 71 | 28.2 | active
EXOC1 (exocyst complex component 1) | SID160744299 | -0.392 | 0.209 | 4.6 | inactive
EXOC1 (exocyst complex component 1) | SID160744300 | 0.898 | 9.28 | 7.99 | inactive
EXOC1 (exocyst complex component 1) | SID160744301 | 1.78 | 15.5 | 8.09 | inactive
LINC01148 (long independently transcribed non-coding RNA 1148) | SID160732935 | 0.402 | 5.8 | 5.32 | inactive
LINC01148 (long independently transcribed non-coding RNA 1148) | SID160732936 | -0.381 | 0.29 | 3.11 | inactive
LINC01148 (long independently transcribed non-coding RNA 1148) | SID160762980 | 0.408 | 5.84 | 6.48 | inactive
GPR15LG (G protein-coupled receptor 15 ligand) | SID160733186 | 5.5 | 41.7 | 22.5 | active
GPR15LG (G protein-coupled receptor 15 ligand) | SID160765634 | -0.219 | 1.42 | 4.26 | inactive
GPR15LG (G protein-coupled receptor 15 ligand) | SID160765635 | 0.22 | 4.52 | 5.37 | inactive
BDNF (brain derived neurotrophic factor) | SID160725175 | 0.774 | 8.42 | 7.58 | inactive
BDNF (brain derived neurotrophic factor) | SID160725243 | -1.65 | -8.67 | 1.99 | inactive
BDNF (brain derived neurotrophic factor) | SID160725313 | 1.94 | 16.6 | 10.2 | inactive
ASPHD1 (aspartate beta-hydroxylase domain containing 1) | SID160724945 | 2.23 | 18.6 | 10.3 | inactive
ASPHD1 (aspartate beta-hydroxylase domain containing 1) | SID160724946 | -0.148 | 1.93 | 3.79 | inactive
ASPHD1 (aspartate beta-hydroxylase domain containing 1) | SID160732803 | -0.603 | -1.28 | 2.79 | inactive
COL1A1 (collagen type I alpha 1 chain) | SID160745674 | -0.0972 | 2.28 | 4.37 | inactive
COL1A1 (collagen type I alpha 1 chain) | SID160745683 | -0.0228 | 2.81 | 6.16 | inactive
COL1A1 (collagen type I alpha 1 chain) | SID160745694 | 1.13 | 10.9 | 7.06 | inactive
TM7SF2 (transmembrane 7 superfamily member 2) | SID160718161 | -0.623 | -1.42 | 4.77 | inactive
TM7SF2 (transmembrane 7 superfamily member 2) | SID160718162 | 3.24 | 25.8 | 13.5 | inactive
TM7SF2 (transmembrane 7 superfamily member 2) | SID160718163 | -0.611 | -1.33 | 3.86 | inactive
MAPRE2 (microtubule associated protein RP/EB family member 2) | SID160729674 | -0.129 | 2.06 | 5.79 | inactive
MAPRE2 (microtubule associated protein RP/EB family member 2) | SID160729675 | 1.77 | 15.4 | 10.5 | inactive
MAPRE2 (microtubule associated protein RP/EB family member 2) | SID160732309 | -0.188 | 1.64 | 3.79 | inactive
HLA-F (major histocompatibility complex, class I, F) | SID160775024 | 1.6 | 14.2 | 12 | inactive
HLA-F (major histocompatibility complex, class I, F) | SID160775025 | 0.451 | 6.14 | 6.34 | inactive
HLA-F (major histocompatibility complex, class I, F) | SID160775026 | 1.59 | 14.2 | 9.07 | inactive
SLC35B4 | SID160752921 | -0.427 | -0.0358 | 4.07 | inactive
SLC35B4 | SID160752922 | -1.17 | -5.25 | 1.36 | inactive
SLC35B4 | SID160752923 | 1.71 | 15 | 7.67 | inactive
ARL6IP1 (ARL6 interacting reticulophagy regulator 1) | SID160735705 | -0.0554 | 2.58 | 6 | inactive
ARL6IP1 (ARL6 interacting reticulophagy regulator 1) | SID160735706 | 0.337 | 5.34 | 6.34 | inactive
ARL6IP1 (ARL6 interacting reticulophagy regulator 1) | SID160735707 | 0.118 | 3.8 | 4.59 | inactive
ADGRG5 (adhesion G protein-coupled receptor G5) | SID160761623 | 3.84 | 29.9 | 16.6 | inactive
ADGRG5 (adhesion G protein-coupled receptor G5) | SID160761624 | -0.506 | -0.591 | 4.31 | inactive
ADGRG5 (adhesion G protein-coupled receptor G5) | SID160761625 | -0.371 | 0.357 | 3.38 | inactive

Active calls, among the entries above:
target | PubChem SID | G2 robust z-score | G2 cells, % of GMNN control | raw share of cells in G2 (%) | Outcome
MCF2L2 (MCF.2 cell line derived transforming sequence-like 2) | SID160735454 | 9.68 | 71 | 28.2 | active
GPR15LG (G protein-coupled receptor 15 ligand) | SID160733186 | 5.5 | 41.7 | 22.5 | active

Additional entries:
target | PubChem SID | G2 robust z-score | G2 cells, % of GMNN control | raw share of cells in G2 (%) | Outcome
CDC7 (cell division cycle 7) | SID160719846 | 1.28 | 12 | 9.32 | inactive
CDC7 (cell division cycle 7) | SID160719847 | 0.0989 | 3.66 | 6.52 | inactive
CDC7 (cell division cycle 7) | SID160719848 | 3.28 | 26.1 | 12 | inactive
ZBTB24 (zinc finger and BTB domain containing 24) | SID160723226 | 0.96 | 9.72 | 6.76 | inactive
ZBTB24 (zinc finger and BTB domain containing 24) | SID160723227 | -1.26 | -5.86 | 3.38 | inactive
ZBTB24 (zinc finger and BTB domain containing 24) | SID160723229 | 0.694 | 7.85 | 6.63 | inactive
FASTKD5 (FASTK mitochondrial RNA regulator 5) | SID160747106 | 3 | 24.1 | 15.1 | inactive
FASTKD5 (FASTK mitochondrial RNA regulator 5) | SID160747107 | 1.48 | 13.4 | 10.6 | inactive
FASTKD5 (FASTK mitochondrial RNA regulator 5) | SID160747108 | 0.329 | 5.28 | 4.09 | inactive
SLC60A2 | SID160754087 | 6.62 | 49.5 | 25.1 | active
SLC60A2 | SID160754088 | -0.853 | -3.03 | 2.05 | inactive
SLC60A2 | SID160754089 | -0.0151 | 2.86 | 3.83 | inactive
UBR3 (ubiquitin protein ligase E3 component n-recognin 3) | SID160756965 | -0.252 | 1.19 | 5.2 | inactive
UBR3 (ubiquitin protein ligase E3 component n-recognin 3) | SID160756966 | 1.19 | 11.3 | 11.4 | inactive
UBR3 (ubiquitin protein ligase E3 component n-recognin 3) | SID160756967 | 2.57 | 21 | 12.4 | inactive
FAM117B (family with sequence similarity 117 member B) | SID160732568 | -0.285 | 0.961 | 3.4 | inactive
FAM117B (family with sequence similarity 117 member B) | SID160759026 | 0.647 | 7.52 | 6.35 | inactive
FAM117B (family with sequence similarity 117 member B) | SID160759027 | 6.39 | 47.9 | 17.7 | active
RND3 (Rho family GTPase 3) | SID160719796 | 2.7 | 22 | 12.9 | inactive
RND3 (Rho family GTPase 3) | SID160719807 | -0.138 | 2 | 4.73 | inactive
RND3 (Rho family GTPase 3) | SID160731189 | 0.691 | 7.83 | 7.38 | inactive
ZNF335 (zinc finger protein 335) | SID160747286 | 1.21 | 11.5 | 6.84 | inactive
ZNF335 (zinc finger protein 335) | SID160747287 | -1.53 | -7.81 | 2.38 | inactive
ZNF335 (zinc finger protein 335) | SID160747288 | 0.916 | 9.41 | 6.59 | inactive
JPH1 (junctophilin 1) | SID160745153 | -1.07 | -4.56 | 2.55 | inactive
JPH1 (junctophilin 1) | SID160745155 | 1.78 | 15.5 | 11.9 | inactive
JPH1 (junctophilin 1) | SID160745156 | 0.29 | 5 | 4.61 | inactive
TTLL2 (tubulin tyrosine ligase like 2) | SID160751492 | 1.5 | 13.5 | 8.61 | inactive
TTLL2 (tubulin tyrosine ligase like 2) | SID160751493 | 1.04 | 10.3 | 6.51 | inactive
TTLL2 (tubulin tyrosine ligase like 2) | SID160751495 | -0.816 | -2.77 | 1.56 | inactive
VRTN (vertebrae development associated) | SID160733593 | -0.847 | -2.99 | 2.18 | inactive
VRTN (vertebrae development associated) | SID160743310 | -0.497 | -0.528 | 4.32 | inactive
VRTN (vertebrae development associated) | SID160743312 | 0.183 | 4.25 | 5.9 | inactive
IFI27L2 (interferon alpha inducible protein 27 like 2) | SID160735069 | 0.919 | 9.43 | 6.25 | inactive
IFI27L2 (interferon alpha inducible protein 27 like 2) | SID160735071 | -0.263 | 1.11 | 2.74 | inactive
IFI27L2 (interferon alpha inducible protein 27 like 2) | SID160751580 | 0.94 | 9.58 | 7.3 | inactive
GAS6 (growth arrest specific 6) | SID160730923 | -0.996 | -4.04 | 2.22 | inactive
GAS6 (growth arrest specific 6) | SID160769394 | -0.0957 | 2.29 | 6.07 | inactive
GAS6 (growth arrest specific 6) | SID160769404 | 0.432 | 6.01 | 7.55 | inactive
ERAS (ES cell expressed Ras) | SID160775300 | -0.482 | -0.425 | 4.05 | inactive
ERAS (ES cell expressed Ras) | SID160775301 | -0.814 | -2.76 | 4.63 | inactive
ERAS (ES cell expressed Ras) | SID160775302 | -0.706 | -2 | 4.32 | inactive
